Experimental data as given in publication PMC4392834.
These are yes or no findings as the source states them, for the method shown. Binding seen in cells or lysates may run through a third protein. Binding calls can cover weak binding; strength is not graded here.

Molecular target: HX-mutated HoxE (VC fusion) (Nematostella)
Test: split reporter; Venus BiFC: VC-Hox and VN-TF co-expressed in live Drosophila embryos with the corresponding Hox-Gal4 driver (abdA-Gal4 for AbdA); epidermis, stage 10-12, quantified at stage 10; affected if equal or lower than 50% of wild type, stronger if 120% or more

B1: VN-Pan (protein, UniProt P91943 1-751)
chain: MPHTHSRHGSSGDDLCSTDEVKIFKDEGDREDEKISSENLLVEEKSSLIDLTESEEKGHKISRPDHSPVFNKLDTHAPSFNMGYLVSPYSYANGSPSGLPVTMANKIGLPPFFCHNADPLSTPPPAHCGIPPYQLDPKMGLTRPALYPFAGGQYPYPMLSSDMSQVASWHTPSVYSASSFRTPYPSSLPINTTLASDFPFRFSPSLLPSVHATSHHVINAHSAIVGVSSKQECGVQDPTTNNRYPRNLEAKHTSNAQSNESKETTNDKKKPHIKKPLNAFMLYMKEMRAKVVAECTLKESAAINQILGRRWHELSREEQSKYYEKARQERQLHMELYPGWSARDNYGYVSKKKKRKKDRSTTDSGGNNMKKCRARFGLDQQSQWCKPCRRKKKCIRYMEALNGNGPAEDGSCFDEHGSQLSDDDEDDYDDDKLGGSCGSADETNKIEDEDSESLNQSMPSPGCLSGLSSLQSPSTTMSLASPLNMNANSATNVIFPASSNALLIVGADQPTAQQRPTLVSTSGSSSGSTSSISTTPNTSSTVSPVTCMTGPCLGSSQERAMMLGNRFSHLGMGLSPPVVSTSTSKSEPFFKPHPTVCNNPIFALPSIGNCSLNISSMPNTSRNPIGANPRDINNPLSINQLTKRREYKNVELIEASESKTIVAHAATSIIQHVAVNGYHANHSLLNSNLGHLHHQLNNRTENPNRSEQTMLSVSNHSVNSSECHKESDSQAIVSSNPPNAGSSDNGVISVS
- binding: binds

B2: VN-Eyes absent (protein, UniProt Q05201 1-766)
chain: MVTLMPYNYAAPRCGLIDKMIEPKVKRPKTDHTDTHERNRLCNLSQQQQQQQPQQQQTHQQQQQQQQQSHQQSHSSTVLASNGPSSAGAGMGVGVGGGGGSGGGVGGGVGQCSPLGLPPQSQPLQPTIGSLASLSGHYSNGNANPNVNSSSCSLATASSFAQSAGSSFSTYQQAGGTSGGVSGEDGVVGGATVMSHWTHDGTGSSAAVKSESRSPGQVHASLDNGSVAGSNLYGCSSASNPLDGGAVAVNSSAVAAAAAAVYDGKHDYYYYNSMQQYTPPPFYSGYGTPYAAATAARQAKMEPGAAAAAAAYLTPSYAASGNNNSQLYSSPYAGYNNFGQQDYGGYYNEQYGNYYSPANYSPYAVSSPSSSASHGHGFHVAASSNLSESPTDTHSTTPVHQTTHSPHSPLPISPSTGSGIGPLGNVSAAAAAAALNSSGGSSVGTAGSGGVATSKTTPTGKTGRARGRRHQQPSPTRSTASDTGNSEAVKPPERVFVWDLDETLIIFHTLLSGSYANRYTKDHSSLMTIAFRMEEMVFNMADTHFFFNEIEECDQVHIDDVSSDDNGQDLSAYNFATDGFHTNTPPGAPPNLCLPTGVRGGVDWMRKLAFRYRKIKDIYNSYRGNVGTLLGPGKREAWLQIRSEIEVATDNWATLALKCLSMISQRENCVNVLVTSTQLAPALAKVLLFGLGGIFNIENIYSAHKIGHETCYERIVTRFGRKSTYVVIGDGNEEETAAKAMNFPFWRISAHSDIRALYTALDMGFL
- binding: binds

B3: VN-Bagpipe (protein, UniProt P22809 1-382)
chain: MLNMESAGVSAAMAGLSKSLTTPFSINDILTRSNPETRRMSSVDSEPEPEKLKPSSDRERSISKSPPLCCRDLGLYKLTQPKEIQPSARQPSNYLQYYAAAMDNNNHHHQATGTSNSSAADYMQRKLAYFGSTLAAPLDMRRCTSNDSDCDSPPPLSSSPSESPLSHDGSGLSRKKRSRAAFSHAQVFELERRFAQQRYLSGPERSEMAKSLRLTETQVKIWFQNRRYKTKRKQIQQHEAALLGASKRVPVQVLVREDGSTTYAHMAAPGAGHGLDPALINIYRHQLQLAYGGLPLPQMQMPFPYFYPQHKVPQPIPPPTQSSSFVTASSASSSPVPIPIPGAVRPQRTPCPSPNGQMMSVESGAESVHSAAEDVDENVEID
- binding: binds

B4: VN-Kn (protein, UniProt P56721 1-575)
chain: MEWGRKLYPSAVSGPRSAGGLMFGLPPTAAVDMNQPRGPMTSLKEEPLGSRWAMQPVVDQSNLGIGRAHFEKQPPSNLRKSNFFHFVIALYDRAGQPIEIERTAFIGFIEKDSESDATKTNNGIQYRLQLLYANGARQEQDIFVRLIDSVTKQAIIYEGQDKNPEMCRVLLTHEVMCSRCCDKKSCGNRNETPSDPVIIDRFFLKFFLKCNQNCLKNAGNPRDMRRFQVVISTQVAVDGPLLAISDNMFVHNNSKHGRRAKRLDTTEGTGNTSLSISGHPLAPDSTYDGLYPPLPVATPCIKAISPSEGWTTGGATVIIVGDNFFDGLQVVFGTMLVWSELITSHAIRVQTPPRHIPGVVEVTLSYKSKQFCKGSPGRFVYVSALNEPTIDYGFQRLQKLIPRHPGDPEKLQKEIILKRAADLVEALYSMPRSPGGSTGFNSYAGQLAVSVQDGSGQWTEDDYQRAQSSSVSPRGGYCSSASTPHSSGGSYGATAASAAVAATANGYAPAPNMGTLSSSPGSVFNSTSMSAVSSTWHQAFVQHHHAATAHPHHHYPHPHQPWHNPAVSAATAAAV
- binding: binds

B5: VN-Empty spiracles (protein, UniProt P18488 1-494)
chain: MTKMIPPVPTAAAAVMMPTPKQKIGFSIESIVGNDVSTAGGNSTPDLSGPQSPPPGERNVPGSPPQTPPATLTLIPGSPPHHLMAPPAHGLPYPHPHAQQQHLQAPHPHPHLSPAQQHVLHQHLLMQQQHPGTPKSHQDIQELLQRLHHNAAMASGLSPLQTRLSPETEQPQMAVSLKRERSPAPPAMEQAENPAQRIQPPHTPPKSVSPQSSQPSSSPTLLISSPHATPPQQQQQQPPPNYPKPAMMHPGGAGPMMMPGMPPAGLVRPFPMGPGGPPMPQGQPGLPDIKALPPYINAPPELPPQHNPHLIAAAQFQMAAALQAGHVLGPAAAAAAAAGLPPHAAQFMPNPGMARDSYQLYPWLLSRHGRIFPHRFPGSFLVPPFRKPKRIRTAFSPSQLLKLEHAFESNQYVVGAERKALAQNLNLSETQVKVWFQNRRTKHKRMQQEDEKGGEGGSQRNMHNGSGDEDDDELIDMEMDECPSDEEHELDASH
- binding: binds
